The exact form of at least one protein or probe is not confirmed. Where a protein sequence is shown, tags need not be part of it.
Molecular target: T1, Ref (bacteriophage P1) (Bacteriophage P1) (UniProt P35926)
T1 sequence: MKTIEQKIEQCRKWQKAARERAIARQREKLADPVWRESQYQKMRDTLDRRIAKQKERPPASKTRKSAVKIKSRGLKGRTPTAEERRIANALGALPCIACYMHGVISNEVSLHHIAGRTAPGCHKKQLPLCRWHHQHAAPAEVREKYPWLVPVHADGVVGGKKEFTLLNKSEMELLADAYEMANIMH
Test: EMSA
Conditions: no RecA, Mg2+ buffer A, 37 C, binds without cleavage, purified recombinant protein

Sequence: GGCCTCGCGGTAGCTGAGCTCGGAGCGCACGATTCGCACTGCTGATGTTC (double strand) [den7/den10 duplex]
- binding result (label: 3' 6-FAM on den7): binds

Sequence: GGCCTCGCGGTAGCTGAGCTCGGAGCGCACGATTCGCACTGCTGATGTTC [den7 50-mer]
- binding result (label: 3' 6-FAM, single-stranded DNA): binds

Reference: patent US20120088276
